Measurements taken from ChEMBL document CHEMBL1926568, “Synthesis, biological evaluation and mechanistic studies of totarol amino alcohol derivatives as potential antimalarial agents” (Bioorg Med Chem, 2012).

Tests used:
[1] = tested on: Plasmodium falciparum; experiment: Antiplasmodial activity against chloroquine-sensitive Plasmodium falciparum D10 after 48 hrs by lactate dehydrogenase assay; format: functional, organism-based; details: D10, 48 h
How it was run: (§1)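 P. falciparum D10 (CQ-sensitive) and K1 (CQ-resistant) kept in continuous in vitro culture, synchronized with 5% D-sorbitol at ring stage when needed; growth read by parasite lactate dehydrogenase assay; each compound run in duplicate on two separate occasions.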

[2] = tested on: Plasmodium falciparum; experiment: Antiplasmodial activity against chloroquine-resistant Plasmodium falciparum K1 after 48 hrs by lactate dehydrogenase assay; format: functional, organism-based; details: K1, 48 h; how it was run: as §1
[3] = tested on: Plasmodium falciparum; experiment: Resistance index, ratio of IC50 for chloroquine-resistant Plasmodium falciparum K1 to IC50 for chloroquine-sensitive Plasmodium falciparum D10; format: functional
How it was run: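 Resistance index computed as IC50 (K1)/IC50 (D10), both from the pLDH assay, each run in duplicate on two separate occasions.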

[4] = tested on: CHO; experiment: Cytotoxicity against CHO cells after 48 hrs by MTT assay; format: cell-based; details: Cricetulus griseus
How it was run: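 CHO cells in DMEM:Ham's (1:1) with 10% heat-inactivated FCS and gentamicin, 37 °C, 5% CO2; 1×10^4 cells/well seeded 24 h, then serial dilutions from DMSO stocks (100–0.01 µg/ml) for 48 h, with medium and DMSO controls.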

CC(C)NCC(O)COc1cccc2ccccc12 (racemic) [PROPRANOLOL] was tested, and the IC50 [1] was 37.7 µM, the IC50 [2] was 10.2 µM and the “Ratio IC50” value [3] was 0.27. It also gave an IC50 [4] of over 300 µM.
